The values that follow come from paper PMC11652107.

Experiment [1] concerns the target HMGA1 recombinant protein (prokaryotic expression, pET28a-sumo) (UniProt P17096). As to the kind of experiment: pull-down; in vitro pull-down with an anti-His antibody after protein purification; recombinant HMGA1 from a prokaryotic expression system.
Experiment [2] has as its target GFP-tagged HMGA1 (human (cloned from TE13 cells)) (UniProt P17096). As to the kind of experiment: co-IP; KYSE30 cells expressing Flag-tagged PARP1 and GFP-tagged HMGA1, anti-Flag and anti-GFP antibodies, Western blot for HMGA1 and PARP1. Background: In western blotting, separated proteins are transferred to a membrane and probed.
Experiment [3] deals with poly(ADP‐ribose) polymerase 1 (PARP1), endogenous (human (endogenous in KYSE30 and KYSE510)) (UniProt P09874). As to the kind of experiment: co-IP; endogenous proteins in KYSE30 and KYSE510 whole-cell extracts, anti-HMGA1 or anti-PARP1 antibody, protein A/G beads, Western blot; also with etoposide (enhanced) and olaparib pretreatment (attenuated).
Experiment [4] concerns the target Flag-tagged PARP1 (human (cloned from TE13 cells)) (UniProt P09874). As to the kind of experiment: co-IP; KYSE30 cells expressing Flag-tagged PARP1 and GFP-tagged HMGA1, anti-Flag and anti-GFP antibodies, Western blot for HMGA1 and PARP1.
The target in experiment [5] is GFP-tagged HMGA1 (human (cloned from TE13 cells)) (UniProt P17096). As to the kind of experiment: co-IP; cells overexpressing GFP-HMGA1 wild type or E47A/E50A, IP with anti-GFP antibody, Western blot for PARP1 and Ku70; with or without etoposide and olaparib.
Experiment [6] has as its target high mobility group A1 (HMGA1), endogenous (human (endogenous in KYSE30 and KYSE510)) (UniProt P17096). The experiment can be described thus: co-IP; endogenous proteins in KYSE30 and KYSE510 whole-cell extracts, anti-HMGA1 or anti-PARP1 antibody, protein A/G beads, Western blot; also with etoposide (enhanced) and olaparib pretreatment (attenuated).

No constants are given. Whether binding was seen depends on the method and setting. In cells and extracts the contact can be indirect. Some entries that bind do so weakly or less than the wild type.

In the case of “PARP1 used in the in vitro pull-down (from UniProt P09874 1-1014) (enzyme)”, in experiment [1], the binding result is “binds”. As for “Flag-tagged PARP1 (from UniProt P09874 1-1014) (enzyme)”, in experiment [2], the binding entry is reported as “binds”.

Consider “high mobility group A1 (HMGA1), endogenous (from UniProt P17096 1-107)”, for which the binding result in experiment [3] is listed as “binds”. On to “GFP-tagged HMGA1 (from UniProt P17096 1-107)”, for which the binding entry in experiment [4] is listed as “binds”.

Regarding “poly(ADP‐ribose) polymerase 1 (PARP1), endogenous (from UniProt P09874 1-1014) (enzyme)”, the binding entry in experiment [5] and in experiment [6] was “binds” in each case.
